Results taken from patent US20240034757A1.
No constants are given. Whether binding was seen depends on the method and setting.

The chains behind the UniProt entries cited, without tags or fusion partners. Residues count along the entry.
UniProt P78556, residues 27-96: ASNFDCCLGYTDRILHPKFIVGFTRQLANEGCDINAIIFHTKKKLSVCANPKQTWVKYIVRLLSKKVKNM
UniProt P02776, residues 32-101: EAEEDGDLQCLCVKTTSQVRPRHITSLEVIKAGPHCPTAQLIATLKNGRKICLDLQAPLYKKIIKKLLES
UniProt P10145, residues 28-99: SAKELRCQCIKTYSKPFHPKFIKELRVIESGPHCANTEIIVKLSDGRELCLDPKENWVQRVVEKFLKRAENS
UniProt Q9Y4X3, residues 25-112: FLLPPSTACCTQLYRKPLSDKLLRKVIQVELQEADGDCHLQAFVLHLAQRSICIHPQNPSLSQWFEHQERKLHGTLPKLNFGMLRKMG
UniProt P80162, residues 38-114: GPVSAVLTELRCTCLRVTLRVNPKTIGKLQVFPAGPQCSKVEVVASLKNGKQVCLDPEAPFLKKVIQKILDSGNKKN
UniProt P02775, residues 59-128: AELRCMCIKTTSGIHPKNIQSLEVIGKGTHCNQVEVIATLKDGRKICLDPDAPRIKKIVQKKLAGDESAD
UniProt Q07325, residues 23-125: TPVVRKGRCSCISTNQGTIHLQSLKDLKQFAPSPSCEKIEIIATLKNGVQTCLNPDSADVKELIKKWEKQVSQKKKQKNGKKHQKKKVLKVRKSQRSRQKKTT
UniProt P80098, residues 24-99: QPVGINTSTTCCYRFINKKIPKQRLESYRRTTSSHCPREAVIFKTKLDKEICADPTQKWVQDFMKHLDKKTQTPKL
UniProt O43927, residues 23-109: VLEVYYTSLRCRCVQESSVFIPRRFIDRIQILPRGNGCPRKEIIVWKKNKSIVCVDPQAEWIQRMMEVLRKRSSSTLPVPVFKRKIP
UniProt O95715, residues 35-111: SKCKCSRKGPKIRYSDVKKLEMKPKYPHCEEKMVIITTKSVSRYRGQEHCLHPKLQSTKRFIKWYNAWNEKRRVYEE
UniProt O15467, residues 24-120: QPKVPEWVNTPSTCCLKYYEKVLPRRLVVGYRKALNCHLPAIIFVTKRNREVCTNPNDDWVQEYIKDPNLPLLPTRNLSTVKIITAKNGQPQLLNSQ
UniProt O00585, residues 24-134: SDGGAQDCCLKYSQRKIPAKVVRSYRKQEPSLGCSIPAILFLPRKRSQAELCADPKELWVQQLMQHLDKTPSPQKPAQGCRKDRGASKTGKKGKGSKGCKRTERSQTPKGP
UniProt P02778, residues 22-98: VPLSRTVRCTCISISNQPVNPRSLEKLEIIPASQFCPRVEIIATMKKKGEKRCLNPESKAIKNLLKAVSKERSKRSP
UniProt P22362, residues 24-96: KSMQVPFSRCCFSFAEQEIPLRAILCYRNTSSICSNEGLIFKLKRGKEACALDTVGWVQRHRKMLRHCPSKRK
UniProt P19875, residues 35-107: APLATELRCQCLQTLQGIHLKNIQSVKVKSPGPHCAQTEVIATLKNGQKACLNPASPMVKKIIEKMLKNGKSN
UniProt Q9NRJ3, residues 23-127: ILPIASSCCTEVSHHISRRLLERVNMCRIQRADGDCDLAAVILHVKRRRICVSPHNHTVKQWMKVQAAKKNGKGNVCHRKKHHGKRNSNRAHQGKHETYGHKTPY
UniProt P55773, residues 22-120: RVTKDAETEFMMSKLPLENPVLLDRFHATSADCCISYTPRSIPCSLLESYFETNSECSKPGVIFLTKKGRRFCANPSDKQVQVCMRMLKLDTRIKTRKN
UniProt P19876, residues 35-107: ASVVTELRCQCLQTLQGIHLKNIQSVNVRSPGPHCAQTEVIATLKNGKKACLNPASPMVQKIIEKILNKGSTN
UniProt O00175, residues 27-104: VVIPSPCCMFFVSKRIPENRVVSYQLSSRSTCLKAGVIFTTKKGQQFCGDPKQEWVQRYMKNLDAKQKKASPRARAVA
UniProt O14625, residues 22-94: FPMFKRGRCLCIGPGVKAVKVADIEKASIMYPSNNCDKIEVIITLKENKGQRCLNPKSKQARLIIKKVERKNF
UniProt P78423, residues 25-100: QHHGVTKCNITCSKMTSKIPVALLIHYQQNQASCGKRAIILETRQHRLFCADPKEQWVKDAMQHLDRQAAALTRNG
UniProt P48061, residues 22-89: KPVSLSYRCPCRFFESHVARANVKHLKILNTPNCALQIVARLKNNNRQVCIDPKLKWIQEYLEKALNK
UniProt Q16663, residues 22-113: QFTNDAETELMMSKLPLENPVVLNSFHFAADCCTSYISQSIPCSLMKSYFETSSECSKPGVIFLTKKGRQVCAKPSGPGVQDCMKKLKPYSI
UniProt P13501, residues 24-91: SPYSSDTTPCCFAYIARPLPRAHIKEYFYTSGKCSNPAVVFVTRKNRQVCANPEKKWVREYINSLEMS
UniProt P09341, residues 35-107: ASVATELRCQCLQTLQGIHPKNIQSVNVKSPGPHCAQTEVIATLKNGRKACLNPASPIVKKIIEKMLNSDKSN
UniProt P42830, residues 41-114: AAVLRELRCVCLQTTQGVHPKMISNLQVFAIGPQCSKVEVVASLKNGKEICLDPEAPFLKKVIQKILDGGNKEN

Key:
[1] = target: CCL20_HUMAN (human) (UniProt P78556); assay: BLI, empty cell the 12th table, row 86, column 6
[2] = target: CCL17_HUMAN (human) (UniProt Q92583); assay: BLI, empty cell the 12th table, row 83, column 6
[3] = target: CCL22_HUMAN (human) (UniProt O00626); assay: BLI, empty cell the 12th table, row 88, column 6
[4] = target: CXCL4_HUMAN (human) (UniProt P02776); assay: BLI, empty cell the 12th table, row 99, column 6
[5] = target: CXCL8_HUMAN (human) (UniProt P10145); assay: BLI, empty cell the 12th table, row 103, column 6
[6] = target: CCL27_HUMAN (human) (UniProt Q9Y4X3); assay: BLI, empty cell the 12th table, row 93, column 6
[7] = target: CXCL6_HUMAN (human) (UniProt P80162); assay: BLI, empty cell the 12th table, row 101, column 6
[8] = target: CXCL7_HUMAN (human) (UniProt P02775); assay: BLI, empty cell the 12th table, row 102, column 6
[9] = target: CXCL9_HUMAN (human) (UniProt Q07325); assay: BLI, empty cell the 12th table, row 104, column 6
[10] = target: CCL7_HUMAN (human) (UniProt P80098); assay: BLI, empty cell the 12th table, row 76, column 6
[11] = target: CXCL13_HUMAN (human) (UniProt O43927); assay: BLI, empty cell the 12th table, row 108, column 6
[12] = target: CXCL14_HUMAN (human) (UniProt O95715); assay: BLI, empty cell the 12th table, row 109, column 6
[13] = target: CCL16_HUMAN (human) (UniProt O15467); assay: BLI, empty cell the 12th table, row 82, column 6
[14] = target: CCL21_HUMAN (human) (UniProt O00585); assay: BLI, empty cell the 12th table, row 87, column 6
[15] = target: CCL19_HUMAN (human) (UniProt Q99731); assay: BLI, empty cell the 12th table, row 85, column 6
[16] = target: CXCL10_HUMAN (human) (UniProt P02778); assay: BLI, empty cell the 12th table, row 105, column 6
[17] = target: CCL1_HUMAN (human) (UniProt P22362); assay: BLI, empty cell the 12th table, row 69, column 6
[18] = target: CXCL2_HUMAN (human) (UniProt P19875); assay: BLI, empty cell the 12th table, row 97, column 6
[19] = target: CCL28_HUMAN (human) (UniProt Q9NRJ3); assay: BLI, empty cell the 12th table, row 94, column 6
[20] = target: CCL23_HUMAN (human) (UniProt P55773); assay: BLI, empty cell the 12th table, row 89, column 6
[21] = target: T1, XCL1_HUMAN (human) (UniProt P47992); assay: BLI, empty cell the 12th table, row 113, column 6
T1 sequence: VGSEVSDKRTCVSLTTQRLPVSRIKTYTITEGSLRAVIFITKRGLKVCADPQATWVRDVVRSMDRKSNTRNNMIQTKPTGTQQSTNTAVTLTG

[22] = target: CXCL3_HUMAN (human) (UniProt P19876); assay: BLI, empty cell the 12th table, row 98, column 6
[23] = target: CCL24_HUMAN (human) (UniProt O00175); assay: BLI, empty cell the 12th table, row 90, column 6
[24] = target: CXCL11_HUMAN (human) (UniProt O14625); assay: BLI, empty cell the 12th table, row 106, column 6
[25] = target: CX3CL1_HUMAN (human) (UniProt P78423); assay: BLI, empty cell the 12th table, row 95, column 6
[26] = target: CXCL12_HUMAN (human) (UniProt P48061); assay: BLI, empty cell the 12th table, row 107, column 6
[27] = target: CCL15_HUMAN (human) (UniProt Q16663); assay: BLI, empty cell the 12th table, row 81, column 6
[28] = target: CCL5_HUMAN (human) (UniProt P13501); assay: BLI, empty cell the 12th table, row 75, column 6
[29] = target: CXCL1_HUMAN (human) (UniProt P09341); assay: BLI, empty cell the 12th table, row 96, column 6
[30] = target: CXCL5_HUMAN (human) (UniProt P42830); assay: BLI, empty cell the 12th table, row 100, column 6
[31] = target: T2, CCL19_HUMAN (human), Q99731; assay: BLI, empty cell the 12th table, row 29, column 7; settings: remark: other sources report otherwise
T2 chain: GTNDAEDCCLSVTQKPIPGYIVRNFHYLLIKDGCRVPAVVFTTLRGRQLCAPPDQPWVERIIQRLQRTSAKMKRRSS

[32] = target: T3, CCL22_HUMAN (human), O00626; assay: BLI, empty cell the 12th table, row 33, column 7; settings: remark: other sources report otherwise
T3 chain: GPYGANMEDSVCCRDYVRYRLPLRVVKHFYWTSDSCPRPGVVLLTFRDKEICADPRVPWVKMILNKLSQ

[33] = target: T4, CCL17_HUMAN (human), Q92583; assay: BLI, empty cell the 12th table, row 27, column 7; settings: remark: other sources report otherwise
T4 chain: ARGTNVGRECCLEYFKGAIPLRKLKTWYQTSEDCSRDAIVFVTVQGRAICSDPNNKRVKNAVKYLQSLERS

Measured: binding

B1: P1182_AMBMA (protein)
chain: EPKDDNDYGGGCPFVVLGNGTHAKPAGCSHLCNGAPETLDNIECYNVTEEVAKRMTPGIPYACWLGWCNKGECKRGNRTEVCYRGSEEE
not listed: [31] | [32] | [33]
no binding (tested: 300 nM): all other assays above

B2: P467_RHIPU, L7M8Z8 22-127 (protein)
chain: AEKSLDSDSSGEDYELWTQGCPFLVAENRTGFGTTVSCQHNCNGAIEKVPEGEPCYTIGEDGLGRMKLNLPYNCSLGECSGGVCVPNGRSDVCFKRTWEENNKAMA
no binding (tested: 300 nM): [31] | [32] | [33]
